{"source": "PubChem BioAssay AID504467", "about": "(National Center for Advancing Translational Sciences (NCATS), 2011)", "note": "In all, about 330,000 compounds went through this assay and about 7,700 (2.3%) were called active. The shares of active, inactive and inconclusive entries below differ from those in the screen. Calls follow the shape of the dose curve; as a rule, active = well fitted inhibition curve with a large enough effect; inconclusive = small, poorly fitted or top-dose-only effect, or effect the other way; inactive = flat fitted curve, though single readings scatter. Potencies of inconclusive entries are doubtful fits and often do not repeat. % is scaled to controls: 0 for no effect and ±100 for the full control effect; potency is read from the fitted curve at half-maximal effect."}
{"assay": "qHTS screen for small molecules that inhibit ELG1-dependent DNA repair in human embryonic kidney (HEK293T) cells expressing luciferase-tagged ELG1; also: nearly all actives have a fitted effect of over 55% in size", "details": "HEK293T ELG1-luciferase reporter, luminescence, 16 h, DNA damage induced by 5-fluorouridine; activity change, negative = inhibition: at 46.1 µM (top of the series)", "in_short": "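Quantitative HTS, concentration-response format. 2,000 cells/well co-treated with 5-fluorouridine and compound, 16 hr in 5% CO2 at 37 °C; ONE-Glo luminescence read after 30 min.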"}
{"smiles": "O=C(NCCC1=CCCCC1)c1ccc2c(c1)N(Cc1ccccc1)C(=O)CS2", "Potency": "inconclusive: 29.1 µM [inhibitor, single point]"}
{"smiles": "CC1CC1C(=O)N(CCC1=CCCCC1)c1c(N)n(Cc2ccccc2)c(=O)[nH]c1=O", "note": "(centres undefined)", "activity change, negative = inhibition": "inactive: -15.6%"}
{"smiles": "Cc1ccc(C(=O)OC(C)CN2C(C)CCCC2C)cc1", "note": "(centres undefined)", "activity change, negative = inhibition": "inactive: -1.29%"}
{"smiles": "CCOc1ccc(/C=C2\\SC(=S)N(CC(=O)NCCCN3CCOCC3)C2=O)cc1", "Potency": "inconclusive: 18.3 µM [activator, partial curve]"}
{"smiles": "O=C(CSc1nnnn1C1CCCCC1)Nc1ccccc1F", "activity change, negative = inhibition": "inactive: 0.578%"}
{"smiles": "CCOC(=O)/C=C/[C@H]1CCc2cccc(Cl)c2O1", "activity change, negative = inhibition": "inactive: 22.2%"}
{"smiles": "COc1ccc(-n2c(=S)[nH]c3cc(C(=O)Nc4cc(OC)c(OC)c(OC)c4)ccc3c2=O)c(OC)c1", "Potency": "inconclusive: 25.9 µM [inhibitor, single point]"}
{"smiles": "Cc1cc(C)nc(Sc2ncnc(N)c2[N+](=O)[O-])n1", "Potency": "inconclusive: 29.1 µM [activator, single point]"}
{"smiles": "COc1cc(C(=O)NNC(=O)CSc2nnc3ccccn23)cc(OC)c1OC", "Potency": "inconclusive: 29.1 µM [activator, single point]"}
{"smiles": "COc1nc(NC(C)(C)C)nc(Oc2ccc(=O)n(C)n2)n1", "Potency": "inconclusive: 20.6 µM [activator, partial curve]"}
{"smiles": "CCN(CCCNC(=O)CN(C)S(=O)(=O)c1ccc2c(c1)CCC(=O)N2)c1cccc(C)c1", "Potency": "inconclusive: 14.6 µM [inhibitor, partial curve, poor fit]"}
{"smiles": "CCN(C(=O)C1CSC2(C)CCC(=O)N12)c1nc2c(C)cccc2s1", "note": "(centres undefined)", "activity change, negative = inhibition": "inactive: 5.11%"}
{"smiles": "O=C(NCC#CCSc1nnc(-c2cccc3ccccc23)o1)c1cccs1", "Potency": "inconclusive: 2.31 µM [inhibitor, full curve]"}
{"smiles": "O=C(CCCCn1c(=O)c2ccccc2n(Cc2ccc(F)cc2)c1=O)NCc1ccco1", "Potency": "inconclusive: 20.6 µM [inhibitor, single point]"}
{"smiles": "COc1ccc(CNCC(=O)Nc2ccccc2-n2cccc2)cc1", "activity change, negative = inhibition": "inactive: -14.2%"}
{"smiles": "O=C(COc1ccc(Cl)cc1Cl)Nc1cccc(-c2ccc(N3CCOCC3)nn2)c1", "Potency": "inconclusive: 2.59 µM [activator, partial curve, poor fit]"}
{"smiles": "COc1cccc(CN(C(=O)/C=C/c2ccco2)C2CCS(=O)(=O)C2)c1", "note": "(centres undefined)", "activity change, negative = inhibition": "inactive: 9.18%"}
{"smiles": "COc1cc(/C=C2/C(=O)ON=C2C)ccc1OCc1ccccc1F", "Potency": "inconclusive: 9.2 µM [activator, partial curve]"}
{"smiles": "CCCN(C(=O)c1cnccn1)c1c(N)n(Cc2ccccc2)c(=O)[nH]c1=O", "activity change, negative = inhibition": "inactive: 9.68%"}
{"smiles": "N/C(=N\\c1nc2ccccc2o1)NC(=O)/C=C/c1ccccc1", "activity change, negative = inhibition": "inactive: -16%"}
{"smiles": "Cc1cc(OCc2nc(-c3ccncc3)no2)cc(C)c1Cl", "activity change, negative = inhibition": "inactive: 11.9%"}
{"smiles": "CCn1cc(C(=O)O)c(=O)c2cnc(N3CCN(C(=S)NC(=O)c4ccc(Cl)cc4)CC3)nc21", "Potency": "inconclusive: 0.082 µM [activator, partial curve, poor fit]"}
{"smiles": "Cc1cc(NC(=O)c2cccs2)ncc1NC(=O)C(C)(C)C", "Potency": "inconclusive: 5.8 µM [activator, partial curve]"}
{"smiles": "O=C(NN1CCOCC1)c1cc(-c2ccc(Br)s2)nc2ccccc12", "Potency": "inconclusive: 18.3 µM [activator, single point]"}
{"smiles": "Cc1nn(Cc2c(Cl)cccc2Cl)c(C)c1NC(=O)CCCn1nc([N+](=O)[O-])c(Cl)c1C", "Potency": "inconclusive: 23.1 µM [inhibitor, partial curve]"}
{"smiles": "CCOc1ccc(NCc2nc3ccccc3n2CCOc2ccccc2)cc1", "Potency": "inconclusive: 14.6 µM [activator, partial curve]"}
{"smiles": "Cc1cccc(OCCCCc2c(C)n[nH]c2C)c1", "activity change, negative = inhibition": "inactive: -26.7%"}
{"smiles": "Cn1c(=O)cc(OCCCC(=O)NCCN2CCN(c3ccccc3F)CC2)c2ccccc21", "Potency": "inconclusive: 20.6 µM [activator, partial curve]"}
{"smiles": "CS(=O)(=O)c1ccc2nc(NC(=O)c3ccccc3)sc2c1", "Potency": "inconclusive: 2.31 µM [activator, full curve]"}
{"smiles": "Cc1ccc(CNC(=O)C(NS(=O)(=O)c2ccc3nc(C)sc3c2)C(C)C)cc1", "note": "(centres undefined)", "Potency": "inconclusive: 29.1 µM [activator, partial curve, poor fit]"}
{"smiles": "Cc1ccnc(NC(=O)CCCc2ccccc2)c1", "Potency": "inconclusive: 10.3 µM [activator, partial curve]"}
{"smiles": "O/N=C/c1cc(Br)ccc1OCc1cccc(F)c1", "activity change, negative = inhibition": "inactive: 20.4%"}
{"smiles": "COC(=O)Nc1sc2nc(C)cc(C)c2c1-n1cccc1", "Potency": "inconclusive: 29.1 µM [inhibitor, single point]"}
{"smiles": "COCn1c(-c2ccc(OC)c(OC)c2)nc2ccccc21", "Potency": "inconclusive: 13 µM [activator, partial curve]"}
{"smiles": "O=C(COC(=O)c1ccccc1-n1cnnn1)c1ccccc1", "Potency": "inconclusive: 25.9 µM [activator, single point]"}
{"smiles": "N#Cc1c(-c2ccccc2)cc(-c2ccc(O)cc2)nc1N", "Potency": "inconclusive: 29.1 µM [inhibitor, single point]"}
{"smiles": "CCC(NC(=S)NCc1ccccc1)C(=O)O", "note": "(centres undefined)", "activity change, negative = inhibition": "inactive: 0.368%"}
{"smiles": "CN(C)/C=C(\\C#N)C(=O)N/N=C/c1ccc(Cl)cc1", "activity change, negative = inhibition": "inactive: 15.7%"}
{"smiles": "COc1cc2c(cc1OC)C(Cc1ccc(O)cc1)N(C)CC2", "note": "(centres undefined)", "activity change, negative = inhibition": "inactive: 4.28%"}
{"smiles": "O=C(Nc1ccccc1N1CCN(C(=O)c2ccc(Cl)cc2)CC1)c1cccnc1", "Potency": "inconclusive: 20.6 µM [inhibitor, partial curve, poor fit]"}
{"smiles": "N#Cc1cc2c(nc1SCC(=O)Nc1sc3c(c1C#N)CCC3)CCC2", "Potency": "inconclusive: 4.61 µM [activator, full curve, poor fit]"}
{"smiles": "COc1cccc(-c2ccc3c(N)c(C(=O)NC4CC4)sc3n2)c1", "Potency": "inconclusive: 5.8 µM [activator, partial curve]"}
{"smiles": "COC(=O)[C@H](Cc1ccccc1)NC(=O)O[C@@H]1C(=O)c2cc(OC)ccc2O[C@H]1c1ccc(OC)c(Br)c1", "Potency": "active: 2.91 µM"}
{"smiles": "CCc1nc(SCC(=O)Nc2nnc(CC)s2)c2c(=O)n(C)c(=O)n(C)c2n1", "Potency": "active: 16.4 µM"}
{"smiles": "CC(=O)Nc1ccc(-c2nc3cc(Cl)ccc3o2)cc1", "Potency": "inconclusive: 1.83 µM [activator, full curve]"}
{"smiles": "Cc1ccc(NC(=O)CSc2nnc(NC(=O)c3ccco3)s2)cc1", "Potency": "inconclusive: 18.3 µM [activator, partial curve]"}
{"smiles": "Cc1csc(NC(=O)c2ccc3ccccc3n2)n1", "Potency": "inconclusive: 2.31 µM [activator, partial curve]"}
{"smiles": "Cn1c(N)c(C(=O)COC(=O)c2cccc(S(=O)(=O)NCc3ccccc3)c2)c(=O)n(C)c1=O", "Potency": "inconclusive: 25.9 µM [inhibitor, single point]"}
{"smiles": "CCn1c2ccccc2c2nnc(SCc3ccc(C(=O)OC)o3)nc21", "Potency": "inconclusive: 29.1 µM [inhibitor, single point]"}
{"smiles": "CC(=O)NCCC(=O)Nc1nc(-c2ccccc2Cl)cs1", "Potency": "inconclusive: 20.6 µM [activator, single point]"}
{"smiles": "CCOc1ccc(C(=O)NCC(=O)OCC(=O)N2CCCCC2)cc1", "Potency": "inconclusive: 23.1 µM [activator, single point]"}
{"smiles": "CN(C)CCCN1C(=O)C(O)=C(C(=O)c2cc3ccccc3o2)C1c1ccccc1", "note": "(centres undefined)", "Potency": "inconclusive: 18.4 µM [activator, single point]"}
{"smiles": "COc1cccc(Cn2nnc(C(=O)Nc3cc(Cl)ccc3OC)c2N)c1", "Potency": "inconclusive: 29.1 µM [inhibitor, single point]"}
{"smiles": "COc1cccc(C(=O)NCC2CCN(c3ccc(S(=O)(=O)N4CCOCC4)cc3)CC2)c1", "Potency": "inconclusive: 16.4 µM [inhibitor, single point]"}
{"smiles": "COCc1cc(C)nc2sc(C(=O)OC(C)C)c(N)c12", "Potency": "inconclusive: 29.1 µM [activator, single point]"}
{"smiles": "Cc1ccc(Oc2nc3ccccn3c(=O)c2/C=C(\\C#N)C(=O)NC2CCS(=O)(=O)C2)cc1", "note": "(centres undefined)", "activity change, negative = inhibition": "inactive: -7.33%"}
{"smiles": "Cc1cc(C(=O)COC(=O)c2ccccc2Br)c(C)n1CC1CCCO1", "note": "(centres undefined)", "Potency": "inconclusive: 0.651 µM [activator, partial curve]"}
{"smiles": "O=C(Nc1ccccc1OC(=O)c1ccc(Cl)cc1)c1ccc(Cl)cc1", "Potency": "inconclusive: 16.4 µM [activator, partial curve]"}
{"smiles": "CCOc1cc(/C=N/Nc2cc(C)nc(-n3nc(C)cc3C)n2)ccc1O", "Potency": "active: 2.59 µM"}
{"smiles": "CCC(C)NC(=O)CN(c1ccc(OC)cc1)S(=O)(=O)c1ccc(NC(C)=O)cc1", "note": "(centres undefined)", "activity change, negative = inhibition": "inactive: -8.94%"}
{"smiles": "FC(F)(F)c1ccc(NCc2ccccn2)nc1", "Potency": "inconclusive: 20.6 µM [activator, partial curve]"}
{"smiles": "Cc1nc2nc(SCC(=O)c3ccccc3)[nH]c2cc1Br", "Potency": "inconclusive: 25.9 µM [activator, single point]"}
{"smiles": "CCOC(=O)c1c(C)[nH]c(C(=O)COC(=O)COc2ccccc2C=O)c1C", "Potency": "inconclusive: 29.1 µM [activator, single point]"}
{"smiles": "CCS(=O)(=O)c1ccc(O)c(NC(=O)c2ccc(S(=O)(=O)N3CCCCCC3)cc2)c1", "activity change, negative = inhibition": "inactive: -8.95%"}
{"smiles": "CCc1ccc(NC(=O)CSc2nnc(C)c(=O)n2N)cc1", "Potency": "inconclusive: 18.3 µM [activator, single point]"}
{"smiles": "COc1cccc(NC(=O)COc2ccc(C(=O)N3CCN(C)CC3)cc2)c1", "activity change, negative = inhibition": "inactive: 6.82%"}
{"smiles": "CCOc1ccc(N(CC(=O)NCCSCc2ccco2)S(=O)(=O)c2ccc(F)cc2)cc1", "activity change, negative = inhibition": "inactive: -6.44%"}
{"smiles": "CCOc1ccc(C(=O)Nc2cccc(-c3ccc(N4CCOCC4)nn3)c2)cc1OCC", "Potency": "inconclusive: 18.3 µM [inhibitor, single point]"}
{"smiles": "COc1cc(O)c2c(=O)c3c(O[C@H]4O[C@@H](CO)[C@H](O)[C@@H](O)[C@@H]4O)ccc(O)c3oc2c1", "activity change, negative = inhibition": "inactive: 7.89%"}
